These results are taken from the supplement of paper PMC11732987, “Enantioselective OTUD7B fragment discovery through chemoproteomics screening and high-throughput optimisation” (Communications Chemistry, 2025).

The chains behind the UniProt entries cited, without tags or fusion partners. Where a name states a change or a piece, a line headed by the entry shows the natural chain unless it says otherwise.
UniProt Q9Y5T5: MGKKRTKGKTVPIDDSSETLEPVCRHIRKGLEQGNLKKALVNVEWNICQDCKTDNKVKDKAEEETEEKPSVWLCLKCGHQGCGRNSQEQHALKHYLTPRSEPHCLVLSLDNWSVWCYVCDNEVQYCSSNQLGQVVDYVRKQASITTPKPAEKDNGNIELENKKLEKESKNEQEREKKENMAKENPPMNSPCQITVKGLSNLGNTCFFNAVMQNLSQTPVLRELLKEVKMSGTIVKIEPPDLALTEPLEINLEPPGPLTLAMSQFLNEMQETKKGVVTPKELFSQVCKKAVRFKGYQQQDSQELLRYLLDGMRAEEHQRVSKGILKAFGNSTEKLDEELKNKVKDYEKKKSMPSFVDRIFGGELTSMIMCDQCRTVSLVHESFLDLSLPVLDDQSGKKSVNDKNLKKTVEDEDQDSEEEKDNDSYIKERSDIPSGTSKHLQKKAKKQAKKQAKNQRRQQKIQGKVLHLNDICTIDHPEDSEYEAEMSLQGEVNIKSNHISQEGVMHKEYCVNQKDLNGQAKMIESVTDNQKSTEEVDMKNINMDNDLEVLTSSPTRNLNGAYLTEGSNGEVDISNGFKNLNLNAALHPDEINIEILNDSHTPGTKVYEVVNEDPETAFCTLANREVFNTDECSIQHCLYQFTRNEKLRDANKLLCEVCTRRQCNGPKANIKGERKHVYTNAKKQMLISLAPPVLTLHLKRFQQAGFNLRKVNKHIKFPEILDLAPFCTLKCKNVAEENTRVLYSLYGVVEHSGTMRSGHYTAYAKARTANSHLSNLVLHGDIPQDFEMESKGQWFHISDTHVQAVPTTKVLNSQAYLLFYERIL
UniProt O75691: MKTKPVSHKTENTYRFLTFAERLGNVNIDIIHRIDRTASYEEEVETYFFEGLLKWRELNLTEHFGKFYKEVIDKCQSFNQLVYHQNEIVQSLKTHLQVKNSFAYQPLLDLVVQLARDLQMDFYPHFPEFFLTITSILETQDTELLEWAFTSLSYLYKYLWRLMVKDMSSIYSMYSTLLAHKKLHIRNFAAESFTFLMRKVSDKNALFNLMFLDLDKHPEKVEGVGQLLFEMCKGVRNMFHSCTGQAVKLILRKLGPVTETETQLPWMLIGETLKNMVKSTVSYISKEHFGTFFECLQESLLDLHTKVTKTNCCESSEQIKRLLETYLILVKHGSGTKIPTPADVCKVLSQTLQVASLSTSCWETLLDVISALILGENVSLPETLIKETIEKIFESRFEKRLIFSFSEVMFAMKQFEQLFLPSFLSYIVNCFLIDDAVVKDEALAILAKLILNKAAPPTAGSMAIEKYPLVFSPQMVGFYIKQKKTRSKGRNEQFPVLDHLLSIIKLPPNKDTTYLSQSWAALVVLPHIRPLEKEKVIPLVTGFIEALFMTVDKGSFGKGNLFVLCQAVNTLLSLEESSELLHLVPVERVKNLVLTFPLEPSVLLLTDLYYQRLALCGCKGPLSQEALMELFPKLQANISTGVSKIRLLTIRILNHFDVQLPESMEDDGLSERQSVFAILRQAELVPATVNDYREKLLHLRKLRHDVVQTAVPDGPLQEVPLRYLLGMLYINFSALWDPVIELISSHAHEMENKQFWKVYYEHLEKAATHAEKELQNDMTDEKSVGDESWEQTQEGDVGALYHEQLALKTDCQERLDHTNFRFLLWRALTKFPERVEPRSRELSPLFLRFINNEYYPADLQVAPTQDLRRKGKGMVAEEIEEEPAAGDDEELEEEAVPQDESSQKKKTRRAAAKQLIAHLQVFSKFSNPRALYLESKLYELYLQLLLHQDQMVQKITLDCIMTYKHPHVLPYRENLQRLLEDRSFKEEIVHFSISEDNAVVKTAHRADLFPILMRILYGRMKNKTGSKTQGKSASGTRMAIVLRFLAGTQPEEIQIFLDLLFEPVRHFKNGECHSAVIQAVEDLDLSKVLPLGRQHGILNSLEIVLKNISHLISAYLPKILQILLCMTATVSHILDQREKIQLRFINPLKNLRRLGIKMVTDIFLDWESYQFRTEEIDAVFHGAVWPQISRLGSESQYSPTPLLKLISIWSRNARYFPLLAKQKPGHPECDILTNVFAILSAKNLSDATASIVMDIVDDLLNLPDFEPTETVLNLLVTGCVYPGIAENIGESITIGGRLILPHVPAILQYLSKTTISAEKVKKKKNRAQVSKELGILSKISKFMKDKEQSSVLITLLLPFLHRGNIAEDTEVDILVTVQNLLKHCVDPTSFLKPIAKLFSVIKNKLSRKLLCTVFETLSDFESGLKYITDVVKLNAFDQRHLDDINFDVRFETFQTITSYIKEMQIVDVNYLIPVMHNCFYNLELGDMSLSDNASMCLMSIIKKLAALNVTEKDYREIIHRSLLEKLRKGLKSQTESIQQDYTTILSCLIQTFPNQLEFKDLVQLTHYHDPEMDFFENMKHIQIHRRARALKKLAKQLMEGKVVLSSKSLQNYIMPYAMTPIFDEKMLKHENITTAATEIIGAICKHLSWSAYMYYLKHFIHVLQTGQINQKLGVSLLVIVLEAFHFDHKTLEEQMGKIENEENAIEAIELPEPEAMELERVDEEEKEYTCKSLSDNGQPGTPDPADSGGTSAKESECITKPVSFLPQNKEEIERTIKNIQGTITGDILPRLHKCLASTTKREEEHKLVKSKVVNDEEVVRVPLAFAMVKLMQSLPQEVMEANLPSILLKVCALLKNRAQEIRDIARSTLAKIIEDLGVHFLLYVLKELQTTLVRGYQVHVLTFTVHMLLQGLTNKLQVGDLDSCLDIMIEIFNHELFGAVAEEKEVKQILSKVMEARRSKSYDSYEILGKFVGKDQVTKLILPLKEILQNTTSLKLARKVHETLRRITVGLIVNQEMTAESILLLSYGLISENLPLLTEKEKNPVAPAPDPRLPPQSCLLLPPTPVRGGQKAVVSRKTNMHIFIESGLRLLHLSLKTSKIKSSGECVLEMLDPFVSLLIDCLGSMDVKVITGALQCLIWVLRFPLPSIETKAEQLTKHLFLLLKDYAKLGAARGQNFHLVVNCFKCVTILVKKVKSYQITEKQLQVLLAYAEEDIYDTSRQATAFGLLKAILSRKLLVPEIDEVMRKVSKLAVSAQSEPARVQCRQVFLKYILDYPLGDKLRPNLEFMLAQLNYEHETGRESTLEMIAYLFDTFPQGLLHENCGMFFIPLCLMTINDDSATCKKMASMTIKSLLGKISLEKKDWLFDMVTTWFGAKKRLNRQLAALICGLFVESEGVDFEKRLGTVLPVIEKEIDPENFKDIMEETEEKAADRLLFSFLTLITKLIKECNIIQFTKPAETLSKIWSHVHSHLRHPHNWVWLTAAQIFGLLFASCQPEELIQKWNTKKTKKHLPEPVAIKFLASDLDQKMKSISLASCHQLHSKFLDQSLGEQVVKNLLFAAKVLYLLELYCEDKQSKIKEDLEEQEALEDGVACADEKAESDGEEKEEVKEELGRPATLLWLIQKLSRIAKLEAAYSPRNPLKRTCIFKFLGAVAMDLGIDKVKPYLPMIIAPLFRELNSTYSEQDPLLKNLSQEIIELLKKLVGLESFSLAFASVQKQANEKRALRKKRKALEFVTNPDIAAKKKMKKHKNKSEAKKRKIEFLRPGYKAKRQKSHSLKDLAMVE
UniProt Q96PU4: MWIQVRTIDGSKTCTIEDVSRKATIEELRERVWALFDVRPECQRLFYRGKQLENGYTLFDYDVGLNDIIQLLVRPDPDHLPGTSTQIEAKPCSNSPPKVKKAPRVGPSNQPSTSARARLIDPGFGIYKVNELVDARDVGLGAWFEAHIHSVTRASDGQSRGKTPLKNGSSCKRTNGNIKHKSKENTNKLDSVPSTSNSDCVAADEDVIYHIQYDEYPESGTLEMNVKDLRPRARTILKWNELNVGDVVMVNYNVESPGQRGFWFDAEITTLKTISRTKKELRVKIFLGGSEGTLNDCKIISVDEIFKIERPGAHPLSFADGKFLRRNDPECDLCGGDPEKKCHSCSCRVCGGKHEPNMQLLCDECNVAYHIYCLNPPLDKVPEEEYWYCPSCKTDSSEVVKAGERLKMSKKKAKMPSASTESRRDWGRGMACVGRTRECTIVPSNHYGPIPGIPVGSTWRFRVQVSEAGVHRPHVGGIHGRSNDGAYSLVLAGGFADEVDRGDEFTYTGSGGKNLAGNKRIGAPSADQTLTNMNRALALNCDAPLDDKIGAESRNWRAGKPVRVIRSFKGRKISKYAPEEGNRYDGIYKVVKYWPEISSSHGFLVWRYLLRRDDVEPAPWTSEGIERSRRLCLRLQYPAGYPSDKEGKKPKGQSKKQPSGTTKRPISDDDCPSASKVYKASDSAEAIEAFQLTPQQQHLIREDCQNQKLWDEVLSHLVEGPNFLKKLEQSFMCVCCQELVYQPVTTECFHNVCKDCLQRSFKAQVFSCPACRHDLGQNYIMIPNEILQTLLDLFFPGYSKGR
UniProt Q9H270: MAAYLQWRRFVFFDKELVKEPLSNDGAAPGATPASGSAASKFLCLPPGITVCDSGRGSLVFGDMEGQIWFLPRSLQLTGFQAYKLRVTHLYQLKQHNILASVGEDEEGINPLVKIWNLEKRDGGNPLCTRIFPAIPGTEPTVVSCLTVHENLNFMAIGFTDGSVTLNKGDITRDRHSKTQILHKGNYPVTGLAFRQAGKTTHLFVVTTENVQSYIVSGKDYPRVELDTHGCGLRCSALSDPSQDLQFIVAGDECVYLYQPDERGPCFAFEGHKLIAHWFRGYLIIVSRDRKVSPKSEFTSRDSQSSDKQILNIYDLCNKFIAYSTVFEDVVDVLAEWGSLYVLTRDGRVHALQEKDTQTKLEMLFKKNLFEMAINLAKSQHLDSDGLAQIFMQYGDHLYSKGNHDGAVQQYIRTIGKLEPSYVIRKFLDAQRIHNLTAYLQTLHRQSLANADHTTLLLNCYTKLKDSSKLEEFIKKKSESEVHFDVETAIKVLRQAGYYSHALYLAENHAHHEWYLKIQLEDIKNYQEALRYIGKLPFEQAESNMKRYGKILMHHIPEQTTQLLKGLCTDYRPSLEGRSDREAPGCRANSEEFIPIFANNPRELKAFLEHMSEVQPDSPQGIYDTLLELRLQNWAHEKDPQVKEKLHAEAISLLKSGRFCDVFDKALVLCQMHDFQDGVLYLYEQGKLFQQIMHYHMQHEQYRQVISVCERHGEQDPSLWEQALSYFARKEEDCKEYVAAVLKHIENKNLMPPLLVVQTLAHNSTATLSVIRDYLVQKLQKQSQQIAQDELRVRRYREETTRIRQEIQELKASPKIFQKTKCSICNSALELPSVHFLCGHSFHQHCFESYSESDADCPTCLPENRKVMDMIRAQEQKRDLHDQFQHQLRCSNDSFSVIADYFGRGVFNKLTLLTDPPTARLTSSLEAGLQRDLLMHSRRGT
UniProt Q9BRU9: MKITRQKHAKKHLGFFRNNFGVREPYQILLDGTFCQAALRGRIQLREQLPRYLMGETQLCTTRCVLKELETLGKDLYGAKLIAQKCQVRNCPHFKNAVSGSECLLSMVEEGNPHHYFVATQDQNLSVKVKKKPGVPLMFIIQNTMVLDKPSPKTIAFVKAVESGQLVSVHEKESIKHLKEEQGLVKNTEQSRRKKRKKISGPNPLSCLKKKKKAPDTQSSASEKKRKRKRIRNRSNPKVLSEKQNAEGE
UniProt Q96T88: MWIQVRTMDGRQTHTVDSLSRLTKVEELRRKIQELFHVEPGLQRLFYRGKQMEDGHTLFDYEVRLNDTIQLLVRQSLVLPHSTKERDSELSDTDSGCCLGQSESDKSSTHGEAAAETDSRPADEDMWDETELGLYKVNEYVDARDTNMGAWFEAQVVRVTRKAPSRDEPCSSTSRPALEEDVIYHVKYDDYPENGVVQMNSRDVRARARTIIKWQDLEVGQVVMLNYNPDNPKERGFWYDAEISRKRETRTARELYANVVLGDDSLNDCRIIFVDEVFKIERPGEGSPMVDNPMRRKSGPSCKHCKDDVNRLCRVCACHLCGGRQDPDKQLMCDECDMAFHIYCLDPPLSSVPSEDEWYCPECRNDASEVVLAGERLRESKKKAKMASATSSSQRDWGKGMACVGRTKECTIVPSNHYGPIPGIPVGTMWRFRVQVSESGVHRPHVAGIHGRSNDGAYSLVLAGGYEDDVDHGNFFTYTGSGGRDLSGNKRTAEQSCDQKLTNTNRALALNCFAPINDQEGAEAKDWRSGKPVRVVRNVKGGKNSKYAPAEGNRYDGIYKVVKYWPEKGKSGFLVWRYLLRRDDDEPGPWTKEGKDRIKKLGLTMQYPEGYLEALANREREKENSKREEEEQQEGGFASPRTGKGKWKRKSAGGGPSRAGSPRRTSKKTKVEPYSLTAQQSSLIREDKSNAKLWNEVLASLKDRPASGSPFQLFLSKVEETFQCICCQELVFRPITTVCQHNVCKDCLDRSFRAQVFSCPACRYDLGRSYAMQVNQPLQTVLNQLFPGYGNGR

Some of the results follow. The data scatter; read single values as rough.

Compound in the test: ClCC(=O)N[C@H]1CCCc2ccccc12
Put plainly: log2 mean competition ratio of IA-DTB cysteine labelling (DMSO/compound) (log2 ratio); higher = stronger cysteine engagement by compound. The note with it: 200 µM; treatment time: 4 h; cell line lysate: HEK293T. On the procedure: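 IA-DTB competitive cysteine chemoproteomics in HEK293T RIPA lysate. Lysates were treated with compound 29 or 30 at 50 or 200 µM for 4 h, then IA-DTB (500 µM, 1 h), trypsin-digested, NeutrAvidin-enriched and analysed by diaPASEF. Competition ratio = intensity DMSO / intensity compound (n=4 treated, n=64 DMSO); binding: mean log2 CR ≥ 1 and p ≤ 0.05 plus QC filters. Target is the cysteine site.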
In the case of USP16 C24 (UniProt Q9Y5T5), the “log2 mean competition ratio” value was -0.0057.
In the case of USP3 C362 (UniProt Q9Y6I4), the “log2 mean competition ratio” value was 0.305.
Turning to USP9X C1061 (UniProt Q93008), the “log2 mean competition ratio” value is -0.0221.
The value for UTP20 C1384 (UniProt O75691) was -0.702; that for UTP20 C345 (UniProt O75691) was -0.0223; that for UHRF2 C432 (UniProt Q96PU4) was 0.156.
The value for VPS11 C231 (UniProt Q9H270) was 0.00295.
On to VARS1 C917, for which the “log2 mean competition ratio” value came out at 0.0371.
The figure for USP16 C618 (UniProt Q9Y5T5) is 0.0919.
The figure for VDAC2 C76 is -0.316; for VHL C77 (UniProt P40337) it is -0.12; for USP47 C856 (UniProt Q96K76) it is -0.124.
UTRN C2986 (UniProt P46939): the “log2 mean competition ratio” value was 0.218.
The figure for UPF1 C213 (UniProt Q92900) is 0.078; for USP32 C1183 (UniProt Q8NFA0) it is 0.0314.
In the case of USP11 C894 (UniProt P51784), the “log2 mean competition ratio” value came to 0.0695.
The value for UTP20 C1794 (UniProt O75691) was -0.239; that for UTP23 C207 (UniProt Q9BRU9) was -0.135.
With URB1 C473 (UniProt O60287), the “log2 mean competition ratio” value was -0.2.
The value for UNC45A C503 (UniProt Q9H3U1) was 0.265.
The figure for UFSP2 C302 (UniProt Q9NUQ7) is -0.204; for USP3 C385 (UniProt Q9Y6I4) it is -0.097; for UTP18 C241 (UniProt Q9Y5J1) it is -0.368.
The figure for UHRF1 C305 (UniProt Q96T88) is 0.043; for USP24 C873 (UniProt Q9UPU5) it is 0.116.
Consider UBR5 C730 (UniProt O95071), for which the “log2 mean competition ratio” value was determined as 0.264.
The value for VLDLR C318 (UniProt P98155) was 0.547.
